Experiment [1] addresses T1, Aromatase (Homo sapiens, UniProt P11511).
T1 sequence (P11511 whole entry): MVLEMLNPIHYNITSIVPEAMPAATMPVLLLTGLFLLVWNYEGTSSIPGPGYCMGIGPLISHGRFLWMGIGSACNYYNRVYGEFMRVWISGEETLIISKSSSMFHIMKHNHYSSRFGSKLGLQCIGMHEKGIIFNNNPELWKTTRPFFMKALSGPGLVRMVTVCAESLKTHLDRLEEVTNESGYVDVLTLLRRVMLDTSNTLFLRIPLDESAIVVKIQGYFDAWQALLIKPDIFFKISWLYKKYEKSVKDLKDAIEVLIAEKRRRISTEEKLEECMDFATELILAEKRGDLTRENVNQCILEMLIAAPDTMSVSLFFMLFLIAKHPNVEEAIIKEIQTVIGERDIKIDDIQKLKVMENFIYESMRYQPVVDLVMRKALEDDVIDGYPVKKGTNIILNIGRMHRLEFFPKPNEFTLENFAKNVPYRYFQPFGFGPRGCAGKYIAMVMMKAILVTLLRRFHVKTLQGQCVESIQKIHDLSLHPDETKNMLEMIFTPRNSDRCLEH

Experiment [2] deals with T1, Aromatase. The source holds these as a separate data set.

Each structure is given as a SMILES string.

For `COc1ccc2c(c1)C(N)=C(CC1=CCNC=C1)C2=O`, the inhibition constant Ki in experiment [1] amounted to 0.0862 µM. The same compound yielded an IC50 in experiment [2] of 3.5 µM.

The term Ki denotes a dissociation constant, usually derived from enzyme kinetics or from competition with a known ligand. Low values mean tighter binding, high ones weaker binding. The IC50 is the midpoint of a concentration-inhibition curve.
